The target in test [1] is T1, DBD-Rho5^G12V (LexA DNA-binding domain fusion of Rho5 G12V, with C328S) (S. cerevisiae) (UniProt P53879).
T1 sequence: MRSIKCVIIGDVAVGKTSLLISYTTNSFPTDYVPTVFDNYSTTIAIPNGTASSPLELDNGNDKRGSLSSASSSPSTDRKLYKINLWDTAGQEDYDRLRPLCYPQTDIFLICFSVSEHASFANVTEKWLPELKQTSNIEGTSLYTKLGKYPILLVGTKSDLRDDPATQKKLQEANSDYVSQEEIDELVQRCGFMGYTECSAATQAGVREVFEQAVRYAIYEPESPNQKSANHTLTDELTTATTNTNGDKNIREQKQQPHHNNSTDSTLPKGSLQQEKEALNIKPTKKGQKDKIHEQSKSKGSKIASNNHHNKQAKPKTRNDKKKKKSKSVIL
The test is described as follows: two-hybrid; LexA DBD fusions of Rho5 (pEG202, all with C328S) and AD-Atg21 (pJG4-5) in strain EGY48 with the LEU2 reporter; growth on SC-Gal plates lacking Leu (and Trp and His).

Test [2] concerns the target T2, DBD-Rho5^K16N (LexA DNA-binding domain fusion of Rho5 K16N, with C328S) (S. cerevisiae) (UniProt P53879).
T2 sequence: T1 sequence with V12G, K16N
The description is as above.

Residue numbers refer to the chain shown, from its start. These are yes or no findings as the source states them, for the method shown. Some results given as binding are weak or reduced against the parent protein; the word gives no strength. Tags and fused reporters may be left off the sequences shown.

B1: AD-Atg21 (activation domain fusion of Atg21) (protein, UniProt Q02887 1-496)
chain: MKVLQFNQDATCCVVAASSHQISIFNCDPFGKCFEIDTKNSKKKTSNNNGSASNSESRNNEESILITNGSRDRTDAEEEEDNEDNALVTGNILKEGEFVIEMLFSTSLIAIADRGQGLNKGKKLKIVNTKRKCTICEIVFPHEIVDVVMNRKRMCVLLESDQIFIYDISCMKPLETIDLWEDHYKRSQANSFSNASNTGTLEGDSANLNRVATNLLANATQKSVNGSNPSVRTRRNSLRSKIRPRMVLSNDDRSILCFTAYSSPKKNKPNSEALYDVVIYDTLNVTPVNYLNSVHKGNVACLAVSHDGKLLATASDKGTIIRVFHTGVDSDYMSSRSLFKEFRRGTRLCNLYQLAFDKSMTMIGCVGDTDTIHLFKLDDASNSLPGDNSSNGHWNEEEYILASNSNPSMGTPKEIPLSKPRIANYFSKKIKSSIPNQNLSRNFAYITVNESNRSCLGFPDEFPNQVYIASDDGTFSIYSIPSKPGECVLTKNNKFT
Consider B1, for which the binding result in test [1] is given as “binds”; in test [2] it was “no binding”.
